{
  "source": "patent US8138170B2",
  "about": "“Immunosuppressive Ningalin compounds” (Memorial Sloan-Kettering Cancer Center, priority 2004, dated 2012)",
  "tested_on": "human lymphocytes",
  "test": "Inhibition of PHA-stimulated lymphocyte proliferation ([3H]thymidine incorporation)",
  "format": "cell-based",
  "details": "cytotoxicity IC50 / immunosuppressive IC50",
  "data": [
    {"smiles": "COc1ccc(CCn2cc(-c3ccc(OC)c(OC)c3)c3c4cc(OC)c(OC)cc4oc(=O)c32)cc1OC", "note": "[Ningalin N3, 1-(3,4-Dimethoxy-phenyl)-3-[2-(3,4-dimethoxy-phenyl)-ethyl]-7,8-dimethoxy-3H-5-oxa-3-aza-cyclopenta[α]naphthalen-4-one]", "values": [
      {"measurement": "Selectivity Ratio [A]/[B]", "value": 100.6}
    ]},
    {"smiles": "COc1ccc(CCn2c(C(=O)N(C)C)c(-c3ccc(OC)c(OC)c3)c3c4cc(OC)c(OC)cc4oc(=O)c32)cc1OC", "note": "[Ningalin N5, 1-(3,4-Dimethoxy-phenyl)-3-[2-(3,4-dimethoxy-phenyl)-ethyl]-7,8-dimethoxy-4-oxo-3,4-dihydro-5-oxa-3-aza-cyclopenta[α]naphthalene-2-carboxylic acid dimethylamide]", "values": [
      {"measurement": "Selectivity Ratio [A]/[B]", "value": 100.3}
    ]}
  ]
}
